According to patent US20240317882A1:
No constants are given. Whether binding was seen depends on the method and setting. Some results given as binding are weak or reduced against the parent protein; the word gives no strength.

The chains behind the UniProt entries cited, without tags or fusion partners. Residues count along the entry.
UniProt P14209, residues 23-122: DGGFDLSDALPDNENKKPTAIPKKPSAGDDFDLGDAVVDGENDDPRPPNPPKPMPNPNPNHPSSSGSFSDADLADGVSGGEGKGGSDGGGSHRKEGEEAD

Biological target: extracellular domain of CD99 (UniProt P14209)
Test: surface plasmon resonance (BiacoreX)

Binder	binding
C4 anti-CD99 scFv (soluble) (scFv) scFv: EVQLQQSGAELVKPGASVKLSCTASGFDIKDTYIHWVKQRPEQGLEWIGRIDPANGDTRYDPEFQGKASLTADTSSNTAYLQFSNLTSEDTAVYYCARRGGLSWGQGTTLTVSSGGGGSGGGGSGGGGSDIQMTQSPASLSASVGETVTITCRASGNIHNYLAWYQQKQGKSPQLLVYNAKTLADGVPSRFSGSGSGTQYSLKINSLQPEDFGSYYCQHFWSTPWTFGGGTKLEIK	binds
C3 anti-CD99 scFv (soluble) (scFv) scFv: QVQLVQSGAEVKKPGASVKVSCKASGFNIKDTYIHWVRQAPGQGLEWMGRIDPANGNTKYDPKFQGRVTMTRDTSISTAYMELSRLRSDDTAVYYCARRGGVDWGQGTLVTVSSGGGGSGGGGSGGGGSDIVMTQTPLSLSVTPGQPASISCKSSQSLLDGDGKTYLNWLLQKPGQSPQRLIYLVSKLDSGVPDRFSGSGSGTDFTLKISRVEAEDVGVYYCWQGTHFPRTFGQGTKLEIK	binds
